Source: the supplement of paper PMC4604168 (melanoma cell lines)
The list shows a part of the results. Repeats are few or missing, and single values can be far off.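 The apoptosis fraction was the count of cleaved-PARP antibody-stained nuclei relative to all DNA-stained nuclei, imaged in 1,536-well plates. Screening doses were set so most cells survived, and baseline and induced cleaved-PARP levels vary greatly across cell lines.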

How the values were obtained:
Assay in all cases: cleaved PARP positive nuclei fraction relative to DMSO control; melanoma cells; higher = more apoptosis
Settings in all cases: library dose: low library concentration; 72 h
[1] = system: 501Mel
[2] = system: A101D
[3] = system: A2058
[4] = system: A375
[5] = system: C32
[6] = system: CBRC013 (line from a melanoma biopsy)
[7] = system: CBRC014 (line from a melanoma biopsy)
[8] = system: CBRC016 (line from a melanoma biopsy)
[9] = system: CBRC017 (line from a melanoma biopsy)
[10] = system: CBRC008 (line from a melanoma biopsy)

| SMILES | cleaved PARP positive nuclei fraction [1] | cleaved PARP positive nuclei fraction [2] | cleaved PARP positive nuclei fraction [3] | cleaved PARP positive nuclei fraction [4] | cleaved PARP positive nuclei fraction [5] | cleaved PARP positive nuclei fraction [6] | cleaved PARP positive nuclei fraction [7] | cleaved PARP positive nuclei fraction [8] | cleaved PARP positive nuclei fraction [9] | cleaved PARP positive nuclei fraction [10] |
| --- | --- | --- | --- | --- | --- | --- | --- | --- | --- | --- |
| COC(=O)c1sccc1S(=O)(=O)Nc1ccc(Nc2ccccc2)cc1OC + O=C1NC(=O)/C(=C/c2ccc(-c3ccc(F)cc3O)o2)S1 [AS252424] (first compound 1 µM, partner dose 1 µM) | 111% | 104% | 20.7% | 120% | 88.1% | 36.9% | 88.7% | 101% | 37.5% |  |
| CN(C)S(=O)(=O)c1ccc2c(c1)/C(=C/c1cc3c([nH]1)CCCC3)C(=O)N2 + COc1cc2c(Oc3ccc4[nH]c(C)cc4c3F)ncnc2cc1OCCCN1CCCC1 [cediranib] (first compound 0.4 µM, partner dose 0.4 µM) | 95.9% | 90.4% | 121% | 118% | 58.7% | 87.7% | 77.5% | 201% | 99.9% | 132% |
| CN(C)S(=O)(=O)c1ccc2c(c1)/C(=C/c1cc3c([nH]1)CCCC3)C(=O)N2 + NCC(=O)Nc1ccc(-n2nc(C(F)(F)F)cc2-c2ccc3c(ccc4ccccc43)c2)cc1 [OSU03012] (first compound 0.4 µM, partner dose 1 µM) | 189% | 92.4% | 50.9% | 1490% | 207% | 67.9% | 113% | 138% | 109% | 214% |
| O=C(O)c1ccc(-c2c[nH]c3ncc(-c4ccccc4)cc23)cc1C1CCCC1 + CN(NC(=O)CC(=O)NN(C)C(=S)c1ccccc1)C(=S)c1ccccc1 [STA4783] (first compound 0.16 µM, partner dose 0.006 µM) | 344% | 118% | 186% | 3450% | 164% | 133% | 567% | 151% | 214% | 1570% |
| NCC(=O)Nc1ccc(-n2nc(C(F)(F)F)cc2-c2ccc3c(ccc4ccccc43)c2)cc1 + CN(NC(=O)CC(=O)NN(C)C(=S)c1ccccc1)C(=S)c1ccccc1 [STA4783] (first compound 1 µM, partner dose 0.006 µM) | 947% | 83.3% | 75.5% | 8990% | 179% | 149% | 623% | 178% | 264% | 1760% |
| CCN(CC)CCCCNc1ncc2cc(-c3cc(OC)cc(OC)c3)c(NC(=O)NC(C)(C)C)nc2n1 + CCCCCCCCCCCC1=C(O)C(=O)C=C(O)C1=O [Embelin] (first compound 0.1 µM, partner dose 1.2 µM) | 68.8% | 31.6% | 86.3% | 63.3% | 67.2% | 352% | 79.5% | 36.1% | 85.5% |  |
| CN(NC(=O)CC(=O)NN(C)C(=S)c1ccccc1)C(=S)c1ccccc1 + COc1cc2c(Oc3ccc4[nH]c(C)cc4c3F)ncnc2cc1OCCCN1CCCC1 [cediranib] (first compound 0.006 µM, partner dose 0.4 µM) | 515% | 104% | 162% | 6360% | 356% | 118% | 443% | 267% | 199% | 2750% |
| O=C(O)c1ccc(-c2c[nH]c3ncc(-c4ccccc4)cc23)cc1C1CCCC1 + NCC(=O)Nc1ccc(-n2nc(C(F)(F)F)cc2-c2ccc3c(ccc4ccccc43)c2)cc1 [OSU03012] (first compound 0.16 µM, partner dose 1 µM) | 1020% | 38.7% | 111% | 2860% | 36.8% | 120% | 95.7% | 230% | 139% | 274% |
| NCC(=O)Nc1ccc(-n2nc(C(F)(F)F)cc2-c2ccc3c(ccc4ccccc43)c2)cc1 + CCCCCCCCCCCC1=C(O)C(=O)C=C(O)C1=O [Embelin] (first compound 1 µM, partner dose 1.2 µM) | 32.5% | 175% | 22.3% | 28.3% | 132% | 76.7% | 82.7% | 109% | 73.5% |  |
| CN(C)S(=O)(=O)c1ccc2c(c1)/C(=C/c1cc3c([nH]1)CCCC3)C(=O)N2 + COc1ccc(COc2ccc(Cc3cnc(N)nc3N)cc2OC)cc1 [GW2580] (first compound 0.4 µM, partner dose 1 µM) | 74.6% | 142% | 50.5% | 43.4% | 63.4% | 75.1% | 107% | 66.5% | 94.7% |  |
| O=C(O)c1ccc(-c2c[nH]c3ncc(-c4ccccc4)cc23)cc1C1CCCC1 + COc1cc2c(Oc3ccc4[nH]c(C)cc4c3F)ncnc2cc1OCCCN1CCCC1 [cediranib] (first compound 0.16 µM, partner dose 0.4 µM) | 90.1% | 41.7% | 138% | 165% | 89.5% | 111% | 93.4% | 269% | 106% | 130% |
| CN(NC(=O)CC(=O)NN(C)C(=S)c1ccccc1)C(=S)c1ccccc1 + COC(=O)c1sccc1S(=O)(=O)Nc1ccc(Nc2ccccc2)cc1OC [GSK0660] (first compound 0.006 µM, partner dose 1 µM) | 174% | 51.9% | 218% | 2470% | 747% | 128% | 432% | 195% | 146% |  |

Three successive records already listed:

| SMILES | cleaved PARP positive nuclei fraction [1] | cleaved PARP positive nuclei fraction [2] | cleaved PARP positive nuclei fraction [3] | cleaved PARP positive nuclei fraction [4] | cleaved PARP positive nuclei fraction [5] | cleaved PARP positive nuclei fraction [6] | cleaved PARP positive nuclei fraction [7] | cleaved PARP positive nuclei fraction [8] | cleaved PARP positive nuclei fraction [9] | cleaved PARP positive nuclei fraction [10] |
| --- | --- | --- | --- | --- | --- | --- | --- | --- | --- | --- |
| CN(C)S(=O)(=O)c1ccc2c(c1)/C(=C/c1cc3c([nH]1)CCCC3)C(=O)N2 + COc1ccc(COc2ccc(Cc3cnc(N)nc3N)cc2OC)cc1 [GW2580] (first compound 0.4 µM, partner dose 1 µM) | 74.6% | 142% | 50.5% | 43.4% | 63.4% | 75.1% | 107% | 66.5% | 94.7% |  |
| O=C(O)c1ccc(-c2c[nH]c3ncc(-c4ccccc4)cc23)cc1C1CCCC1 + COc1cc2c(Oc3ccc4[nH]c(C)cc4c3F)ncnc2cc1OCCCN1CCCC1 [cediranib] (first compound 0.16 µM, partner dose 0.4 µM) | 90.1% | 41.7% | 138% | 165% | 89.5% | 111% | 93.4% | 269% | 106% | 130% |
| CN(NC(=O)CC(=O)NN(C)C(=S)c1ccccc1)C(=S)c1ccccc1 + COC(=O)c1sccc1S(=O)(=O)Nc1ccc(Nc2ccccc2)cc1OC [GSK0660] (first compound 0.006 µM, partner dose 1 µM) | 174% | 51.9% | 218% | 2470% | 747% | 128% | 432% | 195% | 146% |  |
